According to PubChem BioAssay AID1224864 (Chung Lab, Department of Pediatrics, Emory University, 2016):
The other results are listed elsewhere or left out.

Chains of the proteins cited; added tags and fusions are not shown.
UniProt P13569, whole entry, looked up: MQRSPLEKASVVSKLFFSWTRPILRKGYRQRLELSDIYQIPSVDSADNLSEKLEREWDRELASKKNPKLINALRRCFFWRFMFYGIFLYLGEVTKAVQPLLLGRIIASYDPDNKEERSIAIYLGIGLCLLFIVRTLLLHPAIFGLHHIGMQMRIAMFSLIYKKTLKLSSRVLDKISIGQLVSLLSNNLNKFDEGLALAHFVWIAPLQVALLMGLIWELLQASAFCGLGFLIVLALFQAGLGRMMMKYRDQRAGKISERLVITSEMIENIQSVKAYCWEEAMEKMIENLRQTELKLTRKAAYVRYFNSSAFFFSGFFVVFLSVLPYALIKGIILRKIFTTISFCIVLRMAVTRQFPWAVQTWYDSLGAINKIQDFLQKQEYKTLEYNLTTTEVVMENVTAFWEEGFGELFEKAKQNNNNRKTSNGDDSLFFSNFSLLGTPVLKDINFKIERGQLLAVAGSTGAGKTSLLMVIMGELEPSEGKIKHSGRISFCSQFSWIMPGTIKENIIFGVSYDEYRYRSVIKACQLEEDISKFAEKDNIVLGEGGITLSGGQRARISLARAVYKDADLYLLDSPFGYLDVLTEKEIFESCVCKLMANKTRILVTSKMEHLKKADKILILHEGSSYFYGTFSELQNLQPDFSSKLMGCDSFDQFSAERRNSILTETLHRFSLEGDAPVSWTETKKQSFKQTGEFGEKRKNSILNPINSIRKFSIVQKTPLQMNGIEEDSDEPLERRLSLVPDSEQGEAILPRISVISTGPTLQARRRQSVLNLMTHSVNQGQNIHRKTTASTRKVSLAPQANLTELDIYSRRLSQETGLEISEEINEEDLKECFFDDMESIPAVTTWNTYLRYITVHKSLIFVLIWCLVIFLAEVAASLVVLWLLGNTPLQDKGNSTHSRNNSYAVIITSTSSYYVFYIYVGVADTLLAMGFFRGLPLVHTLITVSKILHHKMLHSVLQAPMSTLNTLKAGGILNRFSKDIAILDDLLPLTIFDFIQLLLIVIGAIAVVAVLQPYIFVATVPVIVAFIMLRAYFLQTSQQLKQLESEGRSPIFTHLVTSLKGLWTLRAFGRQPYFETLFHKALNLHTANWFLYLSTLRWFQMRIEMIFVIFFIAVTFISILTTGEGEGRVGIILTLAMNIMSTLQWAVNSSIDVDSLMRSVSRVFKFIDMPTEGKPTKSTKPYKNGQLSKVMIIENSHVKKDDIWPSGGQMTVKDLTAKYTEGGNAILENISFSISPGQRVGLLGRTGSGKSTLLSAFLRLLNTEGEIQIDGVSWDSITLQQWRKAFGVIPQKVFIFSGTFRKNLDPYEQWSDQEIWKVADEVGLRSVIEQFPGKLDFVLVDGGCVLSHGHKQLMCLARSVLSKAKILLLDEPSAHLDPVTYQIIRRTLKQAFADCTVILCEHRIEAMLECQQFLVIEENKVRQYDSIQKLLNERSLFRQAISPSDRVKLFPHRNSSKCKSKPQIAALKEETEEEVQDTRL

Target: Cystic fibrosis transmembrane conductance regulator (Homo sapiens) (UniProt P13569)
Assay: correctors of F508del-CFTR surface localization, primary screen, imaging, HeLa, high-content microscopy, immunofluorescence (AID 1224864);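 further: HeLa cells stably expressing F508del-CFTR stained with 3G11 antibody against NBD1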
Settings: PM immunofluorescence imaging, 24 h, measured here: total cellular F508del-CFTR signal, at 10 µM, stronger effect = higher value, relative to vehicle wells set at 100

Question: `CN(C(=O)Cc1ccc(Cl)c(Cl)c1)[C@@H]1CCCC[C@H]1N1CCCC1` was tested. Which total CFTR intensity did it give?
Answer: Its total CFTR intensity is 73%.
